The reference is the same well before dosing, and untreated signal decays as well.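 Fibroblast labels name human fibroblasts: mostly primary ones from tissues such as uterus (C12385, HUF), lung (H6013), bone (Hs27A), adrenal (HADF) and skin (WS1), plus mammary HMF and breast cancer-associated Hs343T. The cancer cells are basal-like or mesenchymal-like triple-negative breast cancer lines. The paper calls a changed response a hit when it shifts by more than 3x the replicate standard deviation. The tissue of the other fibroblasts is not given here.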
Test system: MDAMB468
Test: relative JC-1 red fluorescence (viability) vs pre-drug, coculture with fibroblast (fraction); higher = more viable cancer cells
Description: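 JC-1 labelled TNBC cells cocultured 1:1 (1,500 cells each) with CellTrace Violet stained primary or stromal fibroblasts in 384-well plates in FluoroBrite medium, treated with one of 42 anticancer drugs at 0.1, 1, 10 or 100 uM. JC-1 red fluorescence (mitochondrial integrity in cancer cells only) was read by plate reader every 8 h for 72 h. Values are normalised to each well's pre-drug value. The stock of one drug was tenfold lower, so its dose labels may be too high.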

CS(=O)(=O)CCNCc1ccc(-c2ccc3ncnc(Nc4ccc(OCc5cccc(F)c5)c(Cl)c4)c3c2)o1 [Lapatinib]
relative JC-1 red fluorescence
Conditions	8 h	16 h	24 h	32 h	40 h	48 h	56 h	64 h	72 h
0.1 µM, coculture fibroblast: C12385	0.8919	0.848	0.7953	0.716	0.648	0.6237	0.585	0.547	0.535
0.1 µM, coculture fibroblast: H6013	0.877	0.823	0.7977	0.7901	0.749	0.755	0.722	0.7026	0.6628
0.1 µM, coculture fibroblast: H6019	0.852	0.8	0.765	0.697	0.652	0.626	0.577	0.54	0.513
0.1 µM, coculture fibroblast: H6076	0.96	0.841	0.889	0.8834	0.824	0.813	0.773	0.748	0.797
0.1 µM, coculture fibroblast: H6231	0.83992	0.959	0.875	0.84	0.797	0.773	0.722	0.701	0.681
0.1 µM, coculture fibroblast: HADF	0.8802	0.851	0.765	0.748	0.696	0.671	0.638	0.626	0.593
0.1 µM, coculture fibroblast: HCFa	0.863	0.789	0.738	0.706	0.631	0.612	0.562	0.525	0.482
0.1 µM, coculture fibroblast: HCPF	0.8774	0.909	0.89	0.8714	0.81	0.78	0.724	0.705	0.699
0.1 µM, coculture fibroblast: HHSteC	0.914	0.868	0.8132	0.794	0.739	0.735	0.672	0.649	0.596
0.1 µM, coculture fibroblast: HMF	0.854	0.935	0.855	0.866	0.8	0.791	0.747	0.739	0.737
0.1 µM, coculture fibroblast: HPFa	0.921	0.909	0.84	0.787	0.751	0.746	0.684	0.656	0.581
0.1 µM, coculture fibroblast: HUF	0.931	0.8534	0.806	0.752	0.703	0.682	0.637	0.615	0.606
0.1 µM, coculture fibroblast: Hs5	0.839	0.75	0.957	0.93	0.86	0.833	0.787	0.748	0.78
0.1 µM, coculture fibroblast: Hs27A	0.8586	0.7769	0.7626	0.7706	0.711	0.7	0.667	0.6428	0.6015
0.1 µM, coculture fibroblast: Hs343T	0.9	0.84	0.868	0.83	0.762	0.737	0.68	0.669	0.641
0.1 µM, coculture fibroblast: WS1	0.9022	0.814	0.747	0.69	0.643	0.607	0.579	0.554	0.546
1 µM, coculture fibroblast: C12385	0.917	0.884	0.858	0.811	0.771	0.746	0.707	0.678	0.6581
1 µM, coculture fibroblast: H6013	0.899	0.89987	0.857	0.848	0.83	0.836	0.796	0.783	0.726
1 µM, coculture fibroblast: H6019	0.847	0.825	0.789	0.739	0.693	0.665	0.6218	0.5898	0.569
1 µM, coculture fibroblast: H6076	0.934	0.9431	0.8984	0.9016	0.83105	0.82243	0.8087	0.782	0.8128
1 µM, coculture fibroblast: H6231	0.853	0.931	0.892	0.8861	0.828	0.818	0.778	0.759	0.735
1 µM, coculture fibroblast: HADF	0.902	0.927	0.877	0.87336	0.833	0.824	0.788	0.783	0.747
1 µM, coculture fibroblast: HCFa	0.9207	0.9218	0.88076	0.8501	0.803	0.789	0.747	0.704	0.646
1 µM, coculture fibroblast: HCPF	0.876	0.972	0.896	0.873	0.8113	0.772	0.717	0.709	0.697
1 µM, coculture fibroblast: HHSteC	0.9306	0.935	0.909	0.885	0.859	0.846	0.7822	0.7458	0.6955
1 µM, coculture fibroblast: HMF	0.861	0.956	0.907	0.8934	0.828	0.82	0.771	0.75	0.729
1 µM, coculture fibroblast: HPFa	0.877	0.964	0.941	0.897	0.864	0.858	0.788	0.759	0.676
1 µM, coculture fibroblast: HUF	0.92373	0.8674	0.828	0.77009	0.723	0.7014	0.6606	0.635	0.609
1 µM, coculture fibroblast: Hs5	0.915	0.954	0.9164	0.882	0.8112	0.7917	0.749	0.7148	0.72158
1 µM, coculture fibroblast: Hs27A	0.8932	0.91966	0.852	0.862	0.8103	0.7991	0.7686	0.74086	0.713
1 µM, coculture fibroblast: Hs343T	0.904	0.934	0.954	0.933	0.874	0.87	0.839	0.83	0.815
1 µM, coculture fibroblast: WS1	0.87	0.8446	0.8125	0.767	0.742	0.714	0.681	0.658	0.643

Reference: the supplement of paper PMC6078165
